Data reported in article PMC5320536.
These are yes or no findings as the source states them, for the method shown. Binding seen in cells or lysates may run through a third protein. Some entries that bind do so weakly or less than the wild type.

The chains behind the UniProt entries cited, without tags or fusion partners.
UniProt P31749: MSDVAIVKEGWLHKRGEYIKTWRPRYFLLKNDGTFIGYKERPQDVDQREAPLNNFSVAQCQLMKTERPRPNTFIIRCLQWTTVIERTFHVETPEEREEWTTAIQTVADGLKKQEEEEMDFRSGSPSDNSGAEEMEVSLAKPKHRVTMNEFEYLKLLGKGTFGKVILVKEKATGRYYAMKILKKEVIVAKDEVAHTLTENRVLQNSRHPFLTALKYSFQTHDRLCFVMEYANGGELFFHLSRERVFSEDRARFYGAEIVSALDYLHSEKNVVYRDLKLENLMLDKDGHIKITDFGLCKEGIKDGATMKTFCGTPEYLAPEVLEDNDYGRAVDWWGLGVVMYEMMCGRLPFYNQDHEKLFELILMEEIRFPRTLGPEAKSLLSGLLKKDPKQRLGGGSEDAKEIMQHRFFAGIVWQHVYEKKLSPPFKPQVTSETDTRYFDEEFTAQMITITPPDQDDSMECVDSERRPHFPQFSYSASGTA
UniProt P31751: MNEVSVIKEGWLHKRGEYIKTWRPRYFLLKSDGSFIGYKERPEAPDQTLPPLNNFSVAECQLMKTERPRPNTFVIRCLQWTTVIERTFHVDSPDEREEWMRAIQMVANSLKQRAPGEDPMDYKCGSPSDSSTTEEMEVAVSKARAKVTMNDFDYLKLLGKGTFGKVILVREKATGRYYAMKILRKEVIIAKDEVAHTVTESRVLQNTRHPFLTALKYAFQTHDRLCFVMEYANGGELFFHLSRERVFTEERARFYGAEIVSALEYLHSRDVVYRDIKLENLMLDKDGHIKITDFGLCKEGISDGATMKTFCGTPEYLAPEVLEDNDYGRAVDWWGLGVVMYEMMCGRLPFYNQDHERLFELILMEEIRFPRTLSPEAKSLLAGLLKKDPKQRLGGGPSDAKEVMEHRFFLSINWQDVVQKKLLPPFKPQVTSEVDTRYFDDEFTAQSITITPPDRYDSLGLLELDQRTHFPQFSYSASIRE
UniProt Q9Y243: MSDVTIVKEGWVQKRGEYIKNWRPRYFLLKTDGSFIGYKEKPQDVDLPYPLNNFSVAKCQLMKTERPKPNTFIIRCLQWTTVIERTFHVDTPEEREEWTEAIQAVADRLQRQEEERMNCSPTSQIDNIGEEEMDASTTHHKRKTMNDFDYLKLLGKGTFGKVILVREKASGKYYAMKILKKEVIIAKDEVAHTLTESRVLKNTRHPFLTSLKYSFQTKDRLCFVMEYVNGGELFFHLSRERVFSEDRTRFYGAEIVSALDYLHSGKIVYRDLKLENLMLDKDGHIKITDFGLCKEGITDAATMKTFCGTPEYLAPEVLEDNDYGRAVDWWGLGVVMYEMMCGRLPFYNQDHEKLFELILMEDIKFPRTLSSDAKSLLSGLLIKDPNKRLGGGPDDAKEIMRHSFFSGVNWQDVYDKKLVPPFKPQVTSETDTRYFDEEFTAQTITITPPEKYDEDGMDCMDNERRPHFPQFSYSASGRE

Biological target: MEK2 (MEK1-/- mouse embryonic fibroblasts) (mouse (endogenous in MEFs)) (UniProt Q63932)
Experiment: co-IP; the three AKTs overexpressed in COS7 cells and in MEK1-/- MEFs, resting and stimulated; details in Fig. S1

binding | Substance
binds | AKT1-GFP (from UniProt P31749 1-480)
binds | AKT2-GFP (from UniProt P31751 1-481)
binds | AKT3-GFP (from UniProt Q9Y243 1-479)
